Consider one compound from ChEMBL document CHEMBL3351846, “Synthesis and SAR studies of bis-chromenone derivatives for anti-proliferative activity against human cancer cells” (Bioorg Med Chem Lett, 2014).

Test [1] is described as follows: Anti-proliferative activity against human PC3 cells by XTT assay. It is filed as functional, cell-based. The following applies: PC-3.
The subject of another test is ACHN. As to the kind of experiment: Anti-proliferative activity against human ACHN cells by XTT assay. The test is classed as functional, cell-based.

Where a name gives a salt, the structure may show the parent alone.

Broadly, the IC50 is the concentration that gives 50% inhibition. A higher IC50 goes with lower potency. In the case of `COc1cccc2c1C(=O)c1c(O)c3c(c(O)c1C2=O)C[C@@](O)(C(=O)CO)C[C@@H]3O[C@H]1C[C@H](N)[C@H](O)[C@H](C)O1` [DOXORUBICIN HYDROCHLORIDE], the half-inhibitory concentration (IC50) in test [1] turned out to be 0.5 µM; with ACHN, 0.26 µM.
